Data published in PMC11535055, “ER-phagy restrains inflammatory responses through its receptor UBAC2” (The EMBO Journal, 2024).
Results are given in words; binding and its absence hold for the method and conditions named. A result given as binding can be weak or reduced; the word gives no strength.

Chains of the proteins cited; added tags and fusions are not shown. Lines headed by an entry give the natural chain unless they say otherwise; changes in a name come on top.
UniProt Q8NBM4: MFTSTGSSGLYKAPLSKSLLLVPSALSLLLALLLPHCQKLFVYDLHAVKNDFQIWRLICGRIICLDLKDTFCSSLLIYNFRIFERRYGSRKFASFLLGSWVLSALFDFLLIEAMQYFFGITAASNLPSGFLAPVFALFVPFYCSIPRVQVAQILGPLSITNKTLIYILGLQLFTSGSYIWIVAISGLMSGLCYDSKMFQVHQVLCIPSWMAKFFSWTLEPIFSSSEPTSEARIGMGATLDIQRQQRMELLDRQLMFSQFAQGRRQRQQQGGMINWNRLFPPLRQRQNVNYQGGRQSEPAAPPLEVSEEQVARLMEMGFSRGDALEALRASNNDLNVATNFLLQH
UniProt O95166: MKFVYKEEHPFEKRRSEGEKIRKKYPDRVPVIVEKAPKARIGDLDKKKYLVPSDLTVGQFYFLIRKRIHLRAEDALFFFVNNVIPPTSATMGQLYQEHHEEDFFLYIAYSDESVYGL
UniProt Q7KZI7: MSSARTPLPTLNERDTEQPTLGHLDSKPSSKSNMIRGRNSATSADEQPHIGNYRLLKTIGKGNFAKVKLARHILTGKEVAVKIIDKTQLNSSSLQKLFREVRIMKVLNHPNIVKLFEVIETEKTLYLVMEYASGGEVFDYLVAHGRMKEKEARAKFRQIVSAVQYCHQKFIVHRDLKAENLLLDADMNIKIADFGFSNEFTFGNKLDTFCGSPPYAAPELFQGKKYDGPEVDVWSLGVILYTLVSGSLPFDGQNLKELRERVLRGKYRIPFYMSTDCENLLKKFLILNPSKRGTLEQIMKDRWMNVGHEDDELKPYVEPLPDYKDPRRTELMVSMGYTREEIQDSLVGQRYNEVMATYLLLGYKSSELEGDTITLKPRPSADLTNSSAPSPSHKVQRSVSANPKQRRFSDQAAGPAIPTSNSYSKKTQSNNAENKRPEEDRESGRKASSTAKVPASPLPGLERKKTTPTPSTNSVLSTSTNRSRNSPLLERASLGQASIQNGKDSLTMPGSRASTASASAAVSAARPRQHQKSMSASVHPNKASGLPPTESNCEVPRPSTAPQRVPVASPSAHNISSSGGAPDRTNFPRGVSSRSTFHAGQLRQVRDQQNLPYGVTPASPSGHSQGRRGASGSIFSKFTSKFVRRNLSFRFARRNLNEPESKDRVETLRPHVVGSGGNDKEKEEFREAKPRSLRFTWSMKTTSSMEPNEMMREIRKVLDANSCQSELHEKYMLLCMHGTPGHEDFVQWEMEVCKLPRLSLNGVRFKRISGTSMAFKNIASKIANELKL

Tests used:
[1] = target: His-GFP-UBAC2, wild type (human) (UniProt Q8NBM4); assay: pull-down; His-GFP-UBAC2 incubated with His-GABARAP (WT or mutants) in reaction buffer in vitro; pull-down with GFP-beads, immunoblot; both purified
[2] = target: His-GFP-UBAC2, wild type (human) (UniProt Q8NBM4); assay: pull-down; His-GFP-UBAC2 purified from E. coli incubated with Flag-MARK2 (purified from 293T) in reaction buffer in vitro, then immunoprecipitated and immunoblotted; precipitating antibody not told; both purified

| Substance | binding [1] | binding [2] |
| --- | --- | --- |
| His-GABARAP, wild type (from UniProt O95166 1-117) | binds | – |
| Flag-MARK2 (from UniProt Q7KZI7 1-788) (enzyme) | – | binds |
